{
  "source": "paper PMC4583475",
  "about": "“Receptor Polymorphism and Genomic Structure Interact to Shape Bitter Taste Perception” (PLoS Genetics, 2015)",
  "system": "bitter taste perception of 48 Caucasian subjects",
  "test": "Human psychophysical bitter taste tests (4-AFC recognition thresholds, gLMS intensity ratings)",
  "type": "in vivo",
  "conditions": "48 human subjects",
  "note": "The source holds more than one record for some entries. The list is limited to them. An entry can have further records. The values listed for one entry appear to be repeats on other runs, samples or individuals.",
  "data": [
    {"smiles": "C=C1CC(O)C2C(=C)C(=O)OC2C2C(C)C(=O)CC12", "note": "(centres unmarked)", "values": [
      {"measurement": "bitter taste recognition threshold, mode of distribution", "value": "9.9x10^-6 M and 2.2x10^-5 M"}
    ]},
    {"smiles": "CC1=C[C@@H]2[C@H]3[C@H](C(C)=C4[C@H]5OC(=O)[C@@H](C)[C@@H]5CC[C@](C)(O)[C@@H]43)[C@@]13[C@@H]2[C@@](C)(O)CC[C@H]1[C@H](C)C(=O)O[C@@H]13", "values": [
      {"measurement": "bitter taste recognition threshold, mode of distribution", "value": "2.6x10^-7 M and 5.9x10^-7 M"}
    ]}
  ]
}
